Source: PMC4350363
Results are given in words; binding and its absence hold for the method and conditions named. In cells and extracts the contact can be indirect. Some results given as binding are weak or reduced against the parent protein; the word gives no strength.

Target: T1, LATS2 (human (endogenous in MDA-MB-231)) (UniProt Q9NRM7)
T1 sequence: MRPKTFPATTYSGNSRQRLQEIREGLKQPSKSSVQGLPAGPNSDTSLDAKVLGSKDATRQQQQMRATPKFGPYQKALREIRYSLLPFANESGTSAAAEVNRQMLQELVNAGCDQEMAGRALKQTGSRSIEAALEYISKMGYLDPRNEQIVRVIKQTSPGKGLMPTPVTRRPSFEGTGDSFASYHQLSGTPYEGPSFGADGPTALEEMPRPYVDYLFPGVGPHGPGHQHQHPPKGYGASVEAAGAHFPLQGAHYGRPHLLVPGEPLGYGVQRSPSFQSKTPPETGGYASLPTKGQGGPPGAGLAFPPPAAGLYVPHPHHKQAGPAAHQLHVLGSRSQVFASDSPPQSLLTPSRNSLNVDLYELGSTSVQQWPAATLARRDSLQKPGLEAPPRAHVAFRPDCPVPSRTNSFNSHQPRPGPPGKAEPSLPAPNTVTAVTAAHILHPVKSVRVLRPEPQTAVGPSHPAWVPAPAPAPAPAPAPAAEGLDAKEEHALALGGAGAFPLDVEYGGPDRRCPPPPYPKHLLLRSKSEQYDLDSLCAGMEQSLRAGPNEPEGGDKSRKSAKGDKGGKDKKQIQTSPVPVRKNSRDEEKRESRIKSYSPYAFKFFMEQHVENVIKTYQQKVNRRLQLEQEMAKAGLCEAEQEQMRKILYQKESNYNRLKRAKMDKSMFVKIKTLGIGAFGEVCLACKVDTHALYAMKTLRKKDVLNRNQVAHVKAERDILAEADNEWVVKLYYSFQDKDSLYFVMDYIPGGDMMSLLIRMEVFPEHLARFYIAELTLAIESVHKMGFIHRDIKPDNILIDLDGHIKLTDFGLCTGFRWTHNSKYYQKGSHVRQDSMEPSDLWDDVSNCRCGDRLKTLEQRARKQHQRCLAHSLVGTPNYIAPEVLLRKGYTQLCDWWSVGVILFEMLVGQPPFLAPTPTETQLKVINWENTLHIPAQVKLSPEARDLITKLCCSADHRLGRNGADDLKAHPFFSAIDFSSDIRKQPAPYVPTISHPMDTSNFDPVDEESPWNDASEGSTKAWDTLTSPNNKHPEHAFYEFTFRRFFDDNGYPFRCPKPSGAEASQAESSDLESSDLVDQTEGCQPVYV
Assay: co-IP; endogenous proteins; 0.75 mg whole cell lysate in RIPA buffer from MDA-MB-231 cells exposed to 1% O2 for 48 h with 10 μM MG132 for the last 6 h; IP with anti-LATS2 or anti-SIAH1 antibody (IgG as control) and protein G-Sepharose overnight at 4°C, beads washed 5 times in lysis buffer; immunoblot for LATS2 or SIAH1

binding: binds
B1: SIAH1 (enzyme, UniProt Q8IUQ4-1 1-282)
chain: MSRQTATALPTGTSKCPPSQRVPALTGTTASNNDLASLFECPVCFDYVLPPILQCQSGHLVCSNCRPKLTCCPTCRGPLGSIRNLAMEKVANSVLFPCKYASSGCEITLPHTEKADHEELCEFRPYSCPCPGASCKWQGSLDAVMPHLMHQHKSITTLQGEDIVFLATDINLPGAVDWVMMQSCFGFHFMLVLEKQEKYDGHQQFFAIVQLIGTRKQAENFAYRLELNGHRRRLTWEATPRSIHEGIATAIMNSDCLVFDTSIAQLFAENGNLGINVTISMC
